Experimental data reported in the supplement of paper PMC10849652.
Some of the results follow.

By UniProt entry, the sequences of proteins in these tests, tags left out. Where a name states a change or a piece, a line headed by the entry shows the natural chain unless it says otherwise.
UniProt P52657, whole entry, looked up: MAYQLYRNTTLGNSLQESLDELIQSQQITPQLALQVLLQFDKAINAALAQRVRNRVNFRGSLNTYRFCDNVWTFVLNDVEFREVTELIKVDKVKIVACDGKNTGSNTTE
UniProt P55084: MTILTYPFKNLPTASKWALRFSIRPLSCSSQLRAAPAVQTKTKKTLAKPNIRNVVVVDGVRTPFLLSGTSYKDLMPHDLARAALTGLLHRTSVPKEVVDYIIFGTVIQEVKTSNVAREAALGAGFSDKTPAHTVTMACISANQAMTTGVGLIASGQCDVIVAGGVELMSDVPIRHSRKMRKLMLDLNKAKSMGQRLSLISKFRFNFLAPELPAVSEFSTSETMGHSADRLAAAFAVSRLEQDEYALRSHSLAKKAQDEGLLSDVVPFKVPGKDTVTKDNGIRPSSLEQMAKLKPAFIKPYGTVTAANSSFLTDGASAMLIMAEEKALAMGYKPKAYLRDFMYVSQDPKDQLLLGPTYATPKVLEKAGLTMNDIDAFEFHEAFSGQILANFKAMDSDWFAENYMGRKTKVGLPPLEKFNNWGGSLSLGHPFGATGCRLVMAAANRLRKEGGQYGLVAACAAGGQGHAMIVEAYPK
UniProt A4D1E9: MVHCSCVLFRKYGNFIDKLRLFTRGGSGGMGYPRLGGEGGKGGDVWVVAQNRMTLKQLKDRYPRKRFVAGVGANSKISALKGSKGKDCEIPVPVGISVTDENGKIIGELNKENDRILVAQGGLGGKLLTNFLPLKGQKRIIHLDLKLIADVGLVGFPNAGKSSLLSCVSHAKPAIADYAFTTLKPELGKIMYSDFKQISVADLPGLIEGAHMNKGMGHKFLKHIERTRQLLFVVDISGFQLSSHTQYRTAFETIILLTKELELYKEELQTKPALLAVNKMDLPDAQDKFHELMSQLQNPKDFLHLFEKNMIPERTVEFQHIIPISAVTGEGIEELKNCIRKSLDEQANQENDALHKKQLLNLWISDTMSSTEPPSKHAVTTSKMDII
UniProt Q9Y450, whole entry, looked up: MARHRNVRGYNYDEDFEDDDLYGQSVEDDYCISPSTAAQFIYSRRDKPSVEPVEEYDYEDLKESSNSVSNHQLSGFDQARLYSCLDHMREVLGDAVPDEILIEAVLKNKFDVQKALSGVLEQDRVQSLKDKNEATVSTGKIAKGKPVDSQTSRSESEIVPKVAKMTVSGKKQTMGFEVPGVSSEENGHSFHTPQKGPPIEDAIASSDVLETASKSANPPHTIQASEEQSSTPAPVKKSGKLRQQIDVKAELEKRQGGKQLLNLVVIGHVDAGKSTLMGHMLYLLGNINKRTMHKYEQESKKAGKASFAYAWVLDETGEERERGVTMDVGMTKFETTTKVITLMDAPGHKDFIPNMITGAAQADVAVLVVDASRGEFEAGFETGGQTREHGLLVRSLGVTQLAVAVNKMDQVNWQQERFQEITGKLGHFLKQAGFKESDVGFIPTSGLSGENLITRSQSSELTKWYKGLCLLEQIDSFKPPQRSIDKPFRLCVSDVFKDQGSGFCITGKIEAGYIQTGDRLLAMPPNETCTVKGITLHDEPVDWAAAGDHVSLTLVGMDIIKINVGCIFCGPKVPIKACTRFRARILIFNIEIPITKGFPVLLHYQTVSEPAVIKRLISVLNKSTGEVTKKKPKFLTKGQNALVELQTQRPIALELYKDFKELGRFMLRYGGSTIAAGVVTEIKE
UniProt Q13889: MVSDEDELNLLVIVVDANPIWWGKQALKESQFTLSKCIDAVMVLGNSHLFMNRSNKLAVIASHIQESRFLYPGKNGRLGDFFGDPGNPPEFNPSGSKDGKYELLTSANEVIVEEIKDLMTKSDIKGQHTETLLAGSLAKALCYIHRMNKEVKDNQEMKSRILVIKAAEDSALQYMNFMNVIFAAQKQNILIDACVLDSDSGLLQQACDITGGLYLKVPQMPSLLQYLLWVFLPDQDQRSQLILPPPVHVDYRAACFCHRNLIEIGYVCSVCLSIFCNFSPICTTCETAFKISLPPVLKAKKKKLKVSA
UniProt P10412, whole entry, looked up: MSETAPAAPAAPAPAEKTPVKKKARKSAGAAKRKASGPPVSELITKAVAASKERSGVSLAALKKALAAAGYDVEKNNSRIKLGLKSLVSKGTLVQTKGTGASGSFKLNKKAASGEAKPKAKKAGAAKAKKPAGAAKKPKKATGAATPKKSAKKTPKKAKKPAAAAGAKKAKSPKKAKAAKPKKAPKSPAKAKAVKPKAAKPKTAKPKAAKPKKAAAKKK
UniProt Q9UBN7: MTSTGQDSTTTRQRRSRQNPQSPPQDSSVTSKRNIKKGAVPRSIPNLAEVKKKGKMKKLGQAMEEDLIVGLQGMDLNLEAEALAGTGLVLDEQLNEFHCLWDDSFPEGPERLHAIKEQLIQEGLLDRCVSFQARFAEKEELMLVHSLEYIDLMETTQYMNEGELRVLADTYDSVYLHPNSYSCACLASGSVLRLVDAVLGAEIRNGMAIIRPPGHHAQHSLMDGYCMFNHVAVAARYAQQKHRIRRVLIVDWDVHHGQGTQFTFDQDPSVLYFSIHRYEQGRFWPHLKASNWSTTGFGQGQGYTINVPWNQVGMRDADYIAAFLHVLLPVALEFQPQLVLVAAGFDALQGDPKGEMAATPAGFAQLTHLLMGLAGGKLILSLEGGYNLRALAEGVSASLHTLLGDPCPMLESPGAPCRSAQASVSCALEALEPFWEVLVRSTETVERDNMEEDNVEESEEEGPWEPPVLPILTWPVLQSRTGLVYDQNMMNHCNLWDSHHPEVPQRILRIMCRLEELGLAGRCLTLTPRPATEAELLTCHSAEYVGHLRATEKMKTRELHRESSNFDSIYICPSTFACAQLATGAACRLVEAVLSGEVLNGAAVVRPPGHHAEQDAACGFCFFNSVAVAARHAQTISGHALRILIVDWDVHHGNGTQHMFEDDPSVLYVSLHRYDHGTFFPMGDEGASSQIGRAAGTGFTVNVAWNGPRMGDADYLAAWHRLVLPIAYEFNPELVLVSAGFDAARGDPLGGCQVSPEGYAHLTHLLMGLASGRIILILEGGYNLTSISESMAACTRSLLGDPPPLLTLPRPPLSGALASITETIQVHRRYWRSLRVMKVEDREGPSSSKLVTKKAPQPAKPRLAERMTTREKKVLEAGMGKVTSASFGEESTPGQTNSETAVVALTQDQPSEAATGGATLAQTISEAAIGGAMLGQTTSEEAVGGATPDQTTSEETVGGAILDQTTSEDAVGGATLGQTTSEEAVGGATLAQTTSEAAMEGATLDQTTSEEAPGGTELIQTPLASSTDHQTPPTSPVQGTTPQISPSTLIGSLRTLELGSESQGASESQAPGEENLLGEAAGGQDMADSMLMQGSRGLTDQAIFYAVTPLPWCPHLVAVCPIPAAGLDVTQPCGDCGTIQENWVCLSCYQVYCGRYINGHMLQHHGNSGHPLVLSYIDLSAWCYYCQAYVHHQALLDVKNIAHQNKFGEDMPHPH
UniProt Q9BX10: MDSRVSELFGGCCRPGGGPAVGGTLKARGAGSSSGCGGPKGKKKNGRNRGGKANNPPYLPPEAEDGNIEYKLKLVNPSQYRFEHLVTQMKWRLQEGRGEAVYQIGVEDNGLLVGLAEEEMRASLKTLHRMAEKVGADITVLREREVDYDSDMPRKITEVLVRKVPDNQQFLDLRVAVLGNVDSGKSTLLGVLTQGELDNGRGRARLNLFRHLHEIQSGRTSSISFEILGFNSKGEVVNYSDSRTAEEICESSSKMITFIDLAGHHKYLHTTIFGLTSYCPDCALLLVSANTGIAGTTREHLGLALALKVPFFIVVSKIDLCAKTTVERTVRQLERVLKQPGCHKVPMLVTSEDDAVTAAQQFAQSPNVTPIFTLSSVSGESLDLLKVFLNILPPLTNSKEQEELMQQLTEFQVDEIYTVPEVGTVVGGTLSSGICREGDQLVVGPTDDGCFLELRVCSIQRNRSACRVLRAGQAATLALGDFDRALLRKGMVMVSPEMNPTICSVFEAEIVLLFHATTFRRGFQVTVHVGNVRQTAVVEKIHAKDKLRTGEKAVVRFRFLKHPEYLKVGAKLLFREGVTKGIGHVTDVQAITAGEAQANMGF
UniProt P46976: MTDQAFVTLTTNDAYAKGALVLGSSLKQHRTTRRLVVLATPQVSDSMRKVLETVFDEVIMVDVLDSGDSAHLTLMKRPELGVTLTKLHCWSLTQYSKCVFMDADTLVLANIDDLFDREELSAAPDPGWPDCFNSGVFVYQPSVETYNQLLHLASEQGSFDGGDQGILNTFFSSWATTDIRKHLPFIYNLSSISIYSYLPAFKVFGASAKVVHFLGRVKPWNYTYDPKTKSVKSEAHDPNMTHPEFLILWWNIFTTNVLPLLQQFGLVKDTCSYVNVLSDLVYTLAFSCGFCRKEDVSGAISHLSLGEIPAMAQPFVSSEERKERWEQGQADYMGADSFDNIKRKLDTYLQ
UniProt Q8N4P3, whole entry, looked up: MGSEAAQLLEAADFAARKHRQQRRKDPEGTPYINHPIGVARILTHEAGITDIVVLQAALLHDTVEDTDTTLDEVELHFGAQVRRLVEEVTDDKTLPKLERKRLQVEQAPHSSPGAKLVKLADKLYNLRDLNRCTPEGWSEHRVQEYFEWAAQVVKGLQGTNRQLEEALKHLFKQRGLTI
UniProt P02100: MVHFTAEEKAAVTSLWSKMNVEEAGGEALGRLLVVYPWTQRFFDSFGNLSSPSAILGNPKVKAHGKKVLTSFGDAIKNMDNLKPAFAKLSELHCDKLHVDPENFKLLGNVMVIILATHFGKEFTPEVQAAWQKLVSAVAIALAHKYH
UniProt Q03013: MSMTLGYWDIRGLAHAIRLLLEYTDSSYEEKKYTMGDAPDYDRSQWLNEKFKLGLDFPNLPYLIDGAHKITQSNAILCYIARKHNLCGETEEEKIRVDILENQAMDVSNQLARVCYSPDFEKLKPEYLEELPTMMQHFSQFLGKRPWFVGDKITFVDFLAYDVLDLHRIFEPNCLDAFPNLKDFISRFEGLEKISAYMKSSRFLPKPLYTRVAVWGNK
UniProt Q9BSH5: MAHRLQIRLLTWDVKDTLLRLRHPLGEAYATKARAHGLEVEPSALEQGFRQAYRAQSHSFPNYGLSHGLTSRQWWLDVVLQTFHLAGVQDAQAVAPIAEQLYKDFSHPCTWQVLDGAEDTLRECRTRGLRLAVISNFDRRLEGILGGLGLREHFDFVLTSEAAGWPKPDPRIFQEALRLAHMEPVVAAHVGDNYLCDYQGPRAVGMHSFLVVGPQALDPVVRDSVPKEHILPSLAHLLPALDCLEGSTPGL
UniProt Q8NG08: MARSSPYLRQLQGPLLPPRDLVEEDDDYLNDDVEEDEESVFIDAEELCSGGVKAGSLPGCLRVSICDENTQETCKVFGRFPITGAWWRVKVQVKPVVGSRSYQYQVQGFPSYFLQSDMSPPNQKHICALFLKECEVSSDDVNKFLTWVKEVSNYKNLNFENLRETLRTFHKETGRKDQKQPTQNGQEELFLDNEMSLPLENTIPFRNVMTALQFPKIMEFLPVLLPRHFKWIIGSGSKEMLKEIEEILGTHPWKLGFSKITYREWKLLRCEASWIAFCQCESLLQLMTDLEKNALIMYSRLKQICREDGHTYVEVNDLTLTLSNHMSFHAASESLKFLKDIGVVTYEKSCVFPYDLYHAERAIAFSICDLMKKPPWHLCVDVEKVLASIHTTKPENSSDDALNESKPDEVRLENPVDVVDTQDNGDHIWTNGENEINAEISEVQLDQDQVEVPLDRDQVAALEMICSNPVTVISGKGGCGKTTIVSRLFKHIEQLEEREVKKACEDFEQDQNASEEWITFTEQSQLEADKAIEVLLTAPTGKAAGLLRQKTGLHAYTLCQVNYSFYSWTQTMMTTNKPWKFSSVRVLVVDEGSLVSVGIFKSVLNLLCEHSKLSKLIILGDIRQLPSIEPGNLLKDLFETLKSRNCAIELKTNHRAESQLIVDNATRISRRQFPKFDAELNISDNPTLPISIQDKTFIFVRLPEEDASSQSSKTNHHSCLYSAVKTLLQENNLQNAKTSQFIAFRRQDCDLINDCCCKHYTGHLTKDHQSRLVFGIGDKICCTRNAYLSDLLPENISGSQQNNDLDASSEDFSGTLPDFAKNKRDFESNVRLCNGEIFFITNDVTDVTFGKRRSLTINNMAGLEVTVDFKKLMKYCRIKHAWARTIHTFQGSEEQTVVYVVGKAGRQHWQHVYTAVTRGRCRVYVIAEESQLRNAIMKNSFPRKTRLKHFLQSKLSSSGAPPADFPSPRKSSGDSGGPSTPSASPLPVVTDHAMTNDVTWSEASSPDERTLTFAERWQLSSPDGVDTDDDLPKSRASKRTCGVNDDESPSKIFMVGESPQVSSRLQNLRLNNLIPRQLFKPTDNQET
UniProt P13984, whole entry, looked up: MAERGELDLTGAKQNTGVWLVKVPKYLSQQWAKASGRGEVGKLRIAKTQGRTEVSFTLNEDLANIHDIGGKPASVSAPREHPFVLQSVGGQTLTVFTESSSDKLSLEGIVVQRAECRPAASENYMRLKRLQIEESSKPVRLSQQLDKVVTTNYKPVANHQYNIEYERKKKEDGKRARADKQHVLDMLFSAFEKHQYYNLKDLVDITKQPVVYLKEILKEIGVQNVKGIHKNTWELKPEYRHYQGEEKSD

Tests used:
Experiment in all cases: log2 fold change, soluble protein after heating vs DMSO (PISA); higher = thermal stabilisation; K562 cells, 10 uM, 30 min; active = over 0.2 and 3.5 SD of the protein, either way, in both replicates (recomputed)
erlotinib = compound: C#Cc1cccc(Nc2ncnc3cc(OCCOC)c(OCCOC)cc23)c1 [erlotinib]
How it was run: (§1)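 Values are thermal stability changes relative to control samples and are taken from duplicates. They are stated as log2 fold changes. Before quantification by TMTpro 16plex LC-MS/MS with equalised channel sums, K562 cells at 2×10^6 cells/mL were treated with 10 μM compound for 30 min, heated in aliquots for 3 min across 48°C-58°C, pooled, extracted in PBS with 0.5% NP-40 at 4°C, and centrifuged at 21,000xg for 90 min to give the soluble supernatant.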

[1] = compound: C/C(=N\NC(=O)C1=CC(=CC=C1)S(=O)(=O)N2CCOCC2)/C3=C(C=CC(=C3)Cl)O
How it was run: as §1

[2] = compound: C1=CC(=C(C=C1Cl)C2=NC3=NC=CN=C3C(=N2)NC4=CC=NC=C4)F
How it was run: as §1

[3] = compound: C1=CC(=CC=C1C2=NC3=C(N2)C=C(C=C3)C(=O)N)OC4=CC=C(C=C4)Cl
How it was run: as §1

[4] = compound: C1=CC2=C(C=CC(=C2)/C=C\3/C(=O)NC(=NCC4=CC=CS4)S3)N=C1
How it was run: as §1

[5] = compound: C1=CC2=NC=CN=C2C=C1/C=C/3\C(=O)NC(=O)S3
How it was run: as §1

[6] = compound: C1=CC=C(C=C1)C2=NC(=C(N2)C3=CC=NC=C3)C4=CC(=C(C=C4)Cl)O
How it was run: as §1

[7] = compound: C1=CC=C2C(=C1)C3=NNC4=CC=CC(=C43)C2=O
How it was run: as §1

[8] = compound: C1CCN(C1)C(=O)NC2=CC=CC(=C2)NC3=NC=C(C(=N3)NCCC4=CN=CN4)Br
How it was run: as §1

[9] = compound: C1CN(CCC1(CC2=CC=C(C=C2)Cl)N)C3=NC=NC4=C3C=CN4
How it was run: as §1

Measured: log2 fold change

GTF2A2 (UniProt P52657)
inactive: erlotinib -0.057 | [1] 0.048 | [2] 0.089 | [3] -0.005 | [4] 0.132 | [5] 0.038 | [6] -0.002 | [7] -0.02 | [8] 0.008 | [9] 0.07

HADHB (UniProt P55084)
inactive: erlotinib -0.057 | [1] 0.112 | [2] 0.035 | [3] -0.184 | [4] 0.063 | [5] 0.024 | [6] 0.04 | [7] 0.259 | [8] -0.206 | [9] 0.158

H4C1 (UniProt P62805)
inactive: erlotinib 0.093 | [1] -0.108 | [2] -0.384 | [3] -0.019 | [4] 0.02 | [5] 0.209 | [6] -0.056 | [7] -0.02 | [8] 0.334 | [9] -0.407

HDGFL2 (UniProt Q7Z4V5)
inactive: erlotinib 0.002 | [1] 0.001 | [2] 0.042 | [3] -0.006 | [4] -0.046 | [5] 0.048 | [6] -0.01 | [7] -0.046 | [8] 0.033 | [9] 0.057

HCFC1 isoform 4 (UniProt P51610)
inactive: erlotinib -0.011 | [1] 0.014 | [2] 0.023 | [3] -0.018 | [4] 0.005 | [5] 0.009 | [6] 0.014 | [7] -0.009 | [8] -0.029 | [9] -0.067

HEPH isoform 3 (UniProt Q9BQS7)
inactive: erlotinib -0.024 | [1] -0.049 | [2] -0.068 | [3] 0.017 | [4] 0.019 | [5] 0.014 | [6] -0.01 | [7] -0.068 | [8] -0.001 | [9] 0.016

HDLBP (UniProt Q00341)
inactive: erlotinib 0.04 | [1] -0.018 | [2] -0.319 | [3] 0.027 | [4] 0.016 | [5] 0 | [6] -0.031 | [7] 0.007 | [8] -0.047 | [9] -0.19

HCLS1 (UniProt P14317)
inactive: erlotinib 0.023 | [1] 0.014 | [2] 0.016 | [3] 0 | [4] 0.019 | [5] 0.047 | [6] -0.03 | [7] -0.006 | [8] -0.001 | [9] 0.015

GTPBP10 (UniProt A4D1E9)
inactive: erlotinib 0.077 | [1] 0.016 | [2] 0.084 | [3] -0.018 | [4] 0.08 | [5] 0.027 | [6] -0.018 | [7] 0.078 | [8] -0.112 | [9] -0.097

HBS1L (UniProt Q9Y450)
inactive: erlotinib 0.043 | [1] 0.078 | [2] 0.046 | [3] -0.009 | [4] 0.047 | [5] -0.009 | [6] -0.002 | [7] 0.019 | [8] 0.012 | [9] -0.008

HDDC2 (UniProt Q7Z4H3)
active: [6] 0.292
inactive: erlotinib -0.014 | [1] 0.059 | [2] 0.039 | [3] 0.018 | [4] -0.072 | [5] 0.034 | [7] 0.024 | [8] -0.039 | [9] 0.076

GTSF1 (UniProt Q8WW33)
inactive: erlotinib 0.032 | [1] 0.002 | [2] 0.029 | [3] -0.002 | [4] -0.055 | [5] 0.01 | [6] -0.105 | [7] -0.057 | [8] 0.009 | [9] 0.047

GTF2H3 (UniProt Q13889)
inactive: erlotinib -0.002 | [1] 0.041 | [2] -0.115 | [3] 0.051 | [4] 0.027 | [5] -0.017 | [6] 0.014 | [7] 0.012 | [8] -0.004 | [9] 0.044

H1-4 (UniProt P10412)
inactive: erlotinib -0.155 | [1] -0.189 | [2] -0.507 | [3] 0 | [4] -0.152 | [5] -0.048 | [6] -0.076 | [7] 0.042 | [8] -0.081 | [9] -0.406

HDAC6 (UniProt Q9UBN7)
active: erlotinib 0.43
inactive: [1] 0.033 | [2] -0.007 | [3] -0.007 | [4] 0.041 | [5] -0.164 | [6] 0.033 | [7] 0.07 | [8] -0.043 | [9] 0.115

GTPBP2 (UniProt Q9BX10)
inactive: erlotinib 0.073 | [1] -0.009 | [2] -0.033 | [3] -0.085 | [4] 0.043 | [5] -0.005 | [6] 0.004 | [7] -0.006 | [8] 0.009 | [9] -0.03

GYG1 (UniProt P46976)
inactive: erlotinib -0.064 | [1] 0.016 | [2] -0.23 | [3] 0.005 | [4] 0.089 | [5] -0.039 | [6] -0.109 | [7] 0.083 | [8] -0.075 | [9] -0.027

GTF2F1 (UniProt P35269)
inactive: erlotinib 0.027 | [1] -0.008 | [2] 0.028 | [3] -0.013 | [4] -0.005 | [5] -0.009 | [6] 0.032 | [7] 0.022 | [8] 0 | [9] 0.012

HDDC3 (UniProt Q8N4P3)
inactive: erlotinib 0.031 | [1] -0.084 | [2] 0.033 | [3] -0.034 | [4] 0.104 | [5] 0.043 | [6] -0.014 | [7] 0.014 | [8] 0.007 | [9] 0.013

HBE1 (UniProt P02100)
inactive: erlotinib -0.088 | [1] 0.028 | [2] 0.205 | [3] 0.053 | [4] 0.136 | [5] -0.005 | [6] 0.071 | [7] 0.03 | [8] 0 | [9] 0.018

HDHD5 (UniProt Q9BXW7)
inactive: erlotinib 0.059 | [1] 0.055 | [2] -0.065 | [3] 0.026 | [4] 0.096 | [5] -0.035 | [6] 0.008 | [7] 0.04 | [8] -0.028 | [9] -0.004

Two successive entries out of the list so far:
HADHB (UniProt P55084)
inactive: erlotinib -0.057 | [1] 0.112 | [2] 0.035 | [3] -0.184 | [4] 0.063 | [5] 0.024 | [6] 0.04 | [7] 0.259 | [8] -0.206 | [9] 0.158

H4C1 (UniProt P62805)
inactive: erlotinib 0.093 | [1] -0.108 | [2] -0.384 | [3] -0.019 | [4] 0.02 | [5] 0.209 | [6] -0.056 | [7] -0.02 | [8] 0.334 | [9] -0.407

Later entries.

H1-5 (UniProt P16401)
inactive: erlotinib -0.066 | [1] -0.261 | [2] -0.541 | [3] 0.016 | [4] -0.123 | [5] -0.003 | [6] -0.07 | [7] 0.013 | [8] -0.051 | [9] -0.37

GSTM4 (UniProt Q03013)
inactive: erlotinib 0.084 | [1] -0.029 | [2] 0.217 | [3] -0.002 | [4] -0.038 | [5] 0.268 | [6] -0.031 | [7] -0.128 | [8] 0.018 | [9] 0.062

HDHD3 (UniProt Q9BSH5)
inactive: erlotinib 0.02 | [1] 0.089 | [2] 0.043 | [3] 0.005 | [4] 0.083 | [5] 0.043 | [6] -0.061 | [7] 0.017 | [8] -0.013 | [9] 0.044

GTF2E1 (UniProt P29083)
inactive: erlotinib 0.067 | [1] 0.145 | [2] 0.046 | [3] -0.002 | [4] 0.094 | [5] 0.007 | [6] 0.025 | [7] 0.039 | [8] -0.076 | [9] 0.017

HCCS (UniProt P53701)
inactive: erlotinib 0.076 | [1] -0.04 | [2] 0.033 | [3] -0.009 | [4] 0.057 | [5] -0.018 | [6] -0.089 | [7] -0.044 | [8] 0.096 | [9] 0.06

GTPBP6 (UniProt O43824)
inactive: erlotinib -0.091 | [1] -0.017 | [2] -0.137 | [3] 0.01 | [4] 0.041 | [5] 0.066 | [6] -0.036 | [7] -0.05 | [8] 0.06 | [9] 0.027

HELB (UniProt Q8NG08)
inactive: erlotinib 0.128 | [1] 0.122 | [2] 0.02 | [3] -0.065 | [4] 0.008 | [5] -0.03 | [6] 0.019 | [7] -0.022 | [8] -0.06 | [9] 0.087

GTF2F2 (UniProt P13984)
inactive: erlotinib 0.036 | [1] 0.027 | [2] 0.019 | [3] -0.02 | [4] 0.026 | [5] 0.006 | [6] -0.028 | [7] 0.005 | [8] 0.009 | [9] 0.003

HEXA (UniProt P06865)
inactive: erlotinib 0.012 | [1] -0.012 | [2] 0.013 | [3] 0.007 | [4] 0.024 | [5] 0.004 | [6] -0.003 | [7] -0.023 | [8] 0.01 | [9] 0.007
